Data published in paper PMC11157767 (Molecular Cancer, 2024).
The source gives many values for each of these; only a part stands here.

Test system: TFG-MET allograft tumors
Assay: RNA-sequencing, differential expression and GSEA of TFG-MET allograft tumors
Type: in vivo, mouse
Settings: CAP.v.Veh
Procedure: Error bars display standard error of mean, statistical significance was determined using t-test analysis. (****;p<0.0001, ***;p<0.001, **;p<0.01, *;p<0.05). […] Each dot represents an individual replicate. Error bars display standard error of the mean.
Each dot represents one gene.

[1] = GOCC_LUMENAL_SIDE_OF_ENDOPLASMIC_RETICULUM_MEMBRANE
[2] = GOCC_MITOCHONDRIAL_LARGE_RIBOSOMAL_SUBUNIT
[3] = GOCC_MITOCHONDRIAL_SMALL_RIBOSOMAL_SUBUNIT
[4] = GOCC_NEURON_PROJECTION_CYTOPLASM
[5] = GOCC_NEURON_PROJECTION_MEMBRANE
[6] = GOCC_NEUROTRANSMITTER_RECEPTOR_COMPLEX
[7] = GOCC_NUCLEAR_UBIQUITIN_LIGASE_COMPLEX
[8] = GOCC_ORGANELLE_MEMBRANE_CONTACT_SITE
[9] = GOCC_OUTER_MITOCHONDRIAL_MEMBRANE_PROTEIN_COMPLEX
[10] = GOCC_PERICENTRIC_HETEROCHROMATIN

`CNC(=O)c1ccc(-c2cnc3ncc(Cc4ccc5ncccc5c4)n3n2)cc1F` [Capmatinib] was tested, and the NES (GOCC_KINESIN_COMPLEX) was -1.039, the ES (GOCC_LAMELLIPODIUM) was -0.2624 and the NES (GOCC_LAMELLIPODIUM) was -1.1621. The ES (GOCC_LAMELLIPODIUM_MEMBRANE) was -0.4293, the NES (GOCC_LAMELLIPODIUM_MEMBRANE) was -1.29 and the ES (GOCC_LATERAL_PLASMA_MEMBRANE) was -0.3223. It also gave an NES (GOCC_LATERAL_PLASMA_MEMBRANE) of -1.2046, an ES (GOCC_LEADING_EDGE_MEMBRANE) of -0.2256 and an NES (GOCC_LEADING_EDGE_MEMBRANE) of -0.9818. The ES (GOCC_LIPID_DROPLET) was 0.2172, the NES (GOCC_LIPID_DROPLET) was 1.054 and the ES [1] was 0.2101. For the same compound, the NES [1] was 0.7862, the ES (GOCC_LUMENAL_SIDE_OF_MEMBRANE) was 0.2702 and the NES (GOCC_LUMENAL_SIDE_OF_MEMBRANE) was 1.041. The ES (GOCC_MEDIATOR_COMPLEX) was -0.3883, the NES (GOCC_MEDIATOR_COMPLEX) was -1.323 and the ES (GOCC_MEMBRANE_COAT) was 0.2275. For the same compound, the NES (GOCC_MEMBRANE_COAT) was 1.1094, the ES (GOCC_MICROBODY_MEMBRANE) was 0.2504 and the NES (GOCC_MICROBODY_MEMBRANE) was 1.144. The ES (GOCC_MICROTUBULE) was -0.1933, the NES (GOCC_MICROTUBULE) was -0.9075 and the ES (GOCC_MICROTUBULE_PLUS_END) was -0.3584. For the same compound, the NES (GOCC_MICROTUBULE_PLUS_END) was -1.083, the ES (GOCC_MICROVILLUS) was -0.2262 and the NES (GOCC_MICROVILLUS) was -0.8861. For the same compound, the ES (GOCC_MICROVILLUS_MEMBRANE) was -0.3083, the NES (GOCC_MICROVILLUS_MEMBRANE) was -0.9243 and the ES (GOCC_MIDBODY) was -0.2664. It also gave an NES (GOCC_MIDBODY) of -1.167, an ES [2] of -0.2033 and an NES [2] of -0.7591. For the same compound, the ES (GOCC_MITOCHONDRIAL_MATRIX) was -0.2353, the NES (GOCC_MITOCHONDRIAL_MATRIX) was -1.112 and the ES [3] was -0.3811. The NES [3] was -1.234, the ES (GOCC_MYELIN_SHEATH) was 0.2061 and the NES (GOCC_MYELIN_SHEATH) was 0.8615. For the same compound, the ES (GOCC_MYOSIN_COMPLEX) was 0.2344, the NES (GOCC_MYOSIN_COMPLEX) was 1.047 and the ES (GOCC_MYOSIN_FILAMENT) was 0.235. For the same compound, the NES (GOCC_MYOSIN_FILAMENT) was 0.8028, the ES (GOCC_MYOSIN_II_COMPLEX) was 0.3839 and the NES (GOCC_MYOSIN_II_COMPLEX) was 1.206. For the same compound, the ES (GOCC_M_BAND) was 0.3844, the NES (GOCC_M_BAND) was 1.299 and the ES (GOCC_NBAF_COMPLEX) was -0.3185. The NES (GOCC_NBAF_COMPLEX) was -0.869, the ES (GOCC_NEUROMUSCULAR_JUNCTION) was 0.2157 and the NES (GOCC_NEUROMUSCULAR_JUNCTION) was 1.0027. The ES [4] was 0.2032, the NES [4] was 0.9881 and the ES [5] was 0.1863. It also gave an NES [5] of 0.8353, an ES (GOCC_NEURON_SPINE) of 0.1636 and an NES (GOCC_NEURON_SPINE) of 0.8854. It also gave an ES [6] of -0.2547, an NES [6] of -0.9227 and an ES [7] of -0.3651. It also gave an NES [7] of -1.271, an ES (GOCC_ORGANELLAR_RIBOSOME) of -0.2237 and an NES (GOCC_ORGANELLAR_RIBOSOME) of -0.8894. It also gave an ES (GOCC_ORGANELLE_ENVELOPE_LUMEN) of -0.2651, an NES (GOCC_ORGANELLE_ENVELOPE_LUMEN) of -1.06 and an ES (GOCC_ORGANELLE_INNER_MEMBRANE) of 0.1789. For the same compound, the NES (GOCC_ORGANELLE_INNER_MEMBRANE) was 1.091, the ES [8] was 0.2208 and the NES [8] was 0.8819. For the same compound, the ES (GOCC_OUTER_MEMBRANE) was -0.2332, the NES (GOCC_OUTER_MEMBRANE) was -1.036 and the ES [9] was -0.4368. It also gave an NES [9] of -1.286, an ES (GOCC_PEPTIDASE_COMPLEX) of -0.195 and an NES (GOCC_PEPTIDASE_COMPLEX) of -0.7757. For the same compound, the ES [10] was -0.4697, the NES [10] was -1.383 and the ES (GOCC_PERIKARYON) was 0.1957. The NES (GOCC_PERIKARYON) was 1.046 and the ES (GOCC_PERINUCLEAR_ENDOPLASMIC_RETICULUM) was -0.2559.
